These are yes or no findings as the source states them, for the method shown. Some binding calls cover weakened binding; strength is not graded here. Tags and fused reporters may be left off the sequences shown.
B1: TPP-973: CD137A -6GS-PDA2-6GS-HSA2-His (bispecific antibody)
chain: EVQLVESGGGLVQPGGSLRLSCAASGFTLSNYWMNWVRQAPGKGLEWVANINQDGSERYYVDSVKGRFTISRDNAKNSLYLQMNSLRAEDTAVYYCARGGEGYGVDHYGLDVSGQGTTVTVSSGGGGSGGGGSGGGGSGGGGSGGGGSGGGGSEVQLVESGGGVVRPGGSLRLSCAASGFTFDDYAMSWVRQAPGKGLEWVSGITWNAGSTGYADSVKGRFTISRDNAKNSLYLQMNSLRAEDTALYYCVRDKYSYAWSYDDFDIWGQGTMVTVSSGGGGSGGGGSGGGGSGGGGSGGGGSGGGGSEVQLVESGGGLVKPGGSLRLSCAASGFTFSNYNMNWVRQAPGKGLEWVSSISSAGTHIYYADSVKGRFTISRDNAKNSLYLQMNSLRAEDTAVYYCARDPHSTGWYKDFDYWGQGTLVTVSSAAAHHHHHH
B2: TPP-1023: CD137A -6GS-HSA3-6GS-PDA-His (bispecific antibody)
chain: EVQLVESGGGLVQPGGSLRLSCAASGFTLSNYWMNWVRQAPGKGLEWVANINQDGSERYYVDSVKGRFTISRDNAKNSLYLQMNSLRAEDTAVYYCARGGEGYGVDHYGLDVSGQGTTVTVSSGGGGSGGGGSGGGGSGGGGSGGGGSGGGGSEVQLLESGGGLVKPGGSLRLSCAASGFTVSSYTMNWVRQAPGKGLEWVSSISSSGRYIYYADSVKGRFTISRDNAKNSLYLQMNSLRAEDTAVYYCARDPRMVGNPHEFDIWGQGTMVTVSSGGGGSGGGGSGGGGSGGGGSGGGGSGGGGSEVQLVESGGGLVQPGRSLRLSCAASGFTFDDYALHWVRQAPGKDLEWVSGISWNGGSYGYADSVKGRFTISRDNAKNSLYLQMNSLRAEDTALYYCVREKGPGLTGSTADYYGLDAWGQGTMVTVSSAAAHHHHHH
B3: TPP-982: CD137A -6GS-HSA2-6GS-PDA-His (bispecific antibody)
chain: EVQLVESGGGLVQPGGSLRLSCAASGFTLSNYWMNWVRQAPGKGLEWVANINQDGSERYYVDSVKGRFTISRDNAKNSLYLQMNSLRAEDTAVYYCARGGEGYGVDHYGLDVSGQGTTVTVSSGGGGSGGGGSGGGGSGGGGSGGGGSGGGGSEVQLVESGGGLVKPGGSLRLSCAASGFTFSNYNMNWVRQAPGKGLEWVSSISSAGTHIYYADSVKGRFTISRDNAKNSLYLQMNSLRAEDTAVYYCARDPHSTGWYKDFDYWGQGTLVTVSSGGGGSGGGGSGGGGSGGGGSGGGGSGGGGSEVQLVESGGGLVQPGRSLRLSCAASGFTFDDYALHWVRQAPGKDLEWVSGISWNGGSYGYADSVKGRFTISRDNAKNSLYLQMNSLRAEDTALYYCVREKGPGLTGSTADYYGLDAWGQGTMVTVSSAAAHHHHHH
B4: TPP-1028: CD137A -6GS-HSA3-6GS-PD138G7(G109D)-His (bispecific antibody)
chain: EVQLVESGGGLVQPGGSLRLSCAASGFTLSNYWMNWVRQAPGKGLEWVANINQDGSERYYVDSVKGRFTISRDNAKNSLYLQMNSLRAEDTAVYYCARGGEGYGVDHYGLDVSGQGTTVTVSSGGGGSGGGGSGGGGSGGGGSGGGGSGGGGSEVQLLESGGGLVKPGGSLRLSCAASGFTVSSYTMNWVRQAPGKGLEWVSSISSSGRYIYYADSVKGRFTISRDNAKNSLYLQMNSLRAEDTAVYYCARDPRMVGNPHEFDIWGQGTMVTVSSGGGGSGGGGSGGGGSGGGGSGGGGSGGGGSEVQLVESGGGVVRPGGSLRLSCAASGFTFDDYAMSWVRQAPGKGLEWVSGITWNGGSTGYADSVKDRFTISRDNAKNSLYLQMNSLRAEDTALYYCVRDKYSYAWSYDDFDIWGQGTMVTVSSAAAHHHHHH
B5: 003BB172-E01 (VHH, not shown: small tags and cut ends)
VH: EVQLVESGGGLVQPGGSLRLSCAASGFTFSNYGMHWVRQAPGKRLEWVAVISNDGNTKTYADSVKGRFTISRDNSKNMLYLQMTSLRTEDTAVYYCAQDETTTVTASYYFDYWGQGTLVTVSS
B6: 003BB172-E01-1 (VHH, not shown: small tags and cut ends)
VHH: EVQLVESGGGLVQPGGSLRLSCAASGFTFSNYGMHWVRQAPGKGLEWVAVISNDGNTKTYADSVKGRFTISRDNSKNMLYLQMTSLRTEDTAVYYCAQDETTTVTASYYFDYWGQGTLVTVSS
B7: TPP-971: PDA2-6GS-HSA2-6GS-172E1-13-His (bispecific antibody)
chain: EVQLVESGGGVVRPGGSLRLSCAASGFTFDDYAMSWVRQAPGKGLEWVSGITWNAGSTGYADSVKGRFTISRDNAKNSLYLQMNSLRAEDTALYYCVRDKYSYAWSYDDFDIWGQGTMVTVSSGGGGSGGGGSGGGGSGGGGSGGGGSGGGGSEVQLVESGGGLVKPGGSLRLSCAASGFTFSNYNMNWVRQAPGKGLEWVSSISSAGTHIYYADSVKGRFTISRDNAKNSLYLQMNSLRAEDTAVYYCARDPHSTGWYKDFDYWGQGTLVTVSSGGGGSGGGGSGGGGSGGGGSGGGGSGGGGSEVQLVESGGGVVQPGGSLRLSCAASGFTFSNYGMHWVRQAPGKGLEWVAVISNDGNTKTYADSVKGRFTISRDNSKNTLYLQMNSLRAEDTAVYYCAQDETTTVTASYYFDYWGQGTLVTVSSAAAHHHHHH
B8: TPP-1010: PD138G7(G109D)-6GS-HSA2-6GS- CD137D -His (bispecific antibody)
chain: EVQLVESGGGVVRPGGSLRLSCAASGFTFDDYAMSWVRQAPGKGLEWVSGITWNGGSTGYADSVKDRFTISRDNAKNSLYLQMNSLRAEDTALYYCVRDKYSYAWSYDDFDIWGQGTMVTVSSGGGGSGGGGSGGGGSGGGGSGGGGSGGGGSEVQLVESGGGLVKPGGSLRLSCAASGFTFSNYNMNWVRQAPGKGLEWVSSISSAGTHIYYADSVKGRFTISRDNAKNSLYLQMNSLRAEDTAVYYCARDPHSTGWYKDFDYWGQGTLVTVSSGGGGSGGGGSGGGGSGGGGSGGGGSGGGGSEVQLVESGGGVVQPGGSLRLSCAASGFTFSNYGMHWVRQAPGKGLEWVAVISNDGNTKTYADSVKGRFTISRDNSKNTLYLQMNSLRAEDTAVYYCAQDETTTVTASYYFDYWGQGTLVTVSSAAAHHHHHH
B9: TPP-985: CD137D -6GS-HSA2-2-6GS-PDA2-His (bispecific antibody)
chain: EVQLVESGGGVVQPGGSLRLSCAASGFTFSNYGMHWVRQAPGKGLEWVAVISNDGNTKTYADSVKGRFTISRDNSKNTLYLQMNSLRAEDTAVYYCAQDETTTVTASYYFDYWGQGTLVTVSSGGGGSGGGGSGGGGSGGGGSGGGGSGGGGSEVQLVESGGGLVKPGGSLRLSCAASGFTFSNYNMNWVRQAPGKGLEWVSSISSAGTHIYYADSVKGRFTISRDNAKNSLYLQMNSLRAEDTAVYYCARDPHSTGWYKDFDYWGQGTLVTVSSGGGGSGGGGSGGGGSGGGGSGGGGSGGGGSEVQLVESGGGVVRPGGSLRLSCAASGFTFDDYAMSWVRQAPGKGLEWVSGITWNAGSTGYADSVKGRFTISRDNAKNSLYLQMNSLRAEDTALYYCVRDKYSYAWSYDDFDIWGQGTMVTVSSAAAHHHHHH
B10: TPP-972: CD137A-6GS-PDA-6GS-HSA2-His (bispecific antibody)
chain: EVQLVESGGGLVQPGGSLRLSCAASGFTLSNYWMNWVRQAPGKGLEWVANINQDGSERYYVDSVKGRFTISRDNAKNSLYLQMNSLRAEDTAVYYCARGGEGYGVDHYGLDVSGQGTTVTVSSGGGGSGGGGSGGGGSGGGGSGGGGSGGGGSEVQLVESGGGLVQPGRSLRLSCAASGFTFDDYALHWVRQAPGKDLEWVSGISWNGGSYGYADSVKGRFTISRDNAKNSLYLQMNSLRAEDTALYYCVREKGPGLTGSTADYYGLDAWGQGTMVTVSSGGGGSGGGGSGGGGSGGGGSGGGGSGGGGSEVQLVESGGGLVKPGGSLRLSCAASGFTFSNYNMNWVRQAPGKGLEWVSSISSAGTHIYYADSVKGRFTISRDNAKNSLYLQMNSLRAEDTAVYYCARDPHSTGWYKDFDYWGQGTLVTVSSAAAHHHHHH
B11: TPP-984: CD137D -6GS-HSA2-6GS-PDA-His (bispecific antibody)
chain: EVQLVESGGGVVQPGGSLRLSCAASGFTFSNYGMHWVRQAPGKGLEWVAVISNDGNTKTYADSVKGRFTISRDNSKNTLYLQMNSLRAEDTAVYYCAQDETTTVTASYYFDYWGQGTLVTVSSGGGGSGGGGSGGGGSGGGGSGGGGSGGGGSEVQLVESGGGLVKPGGSLRLSCAASGFTFSNYNMNWVRQAPGKGLEWVSSISSAGTHIYYADSVKGRFTISRDNAKNSLYLQMNSLRAEDTAVYYCARDPHSTGWYKDFDYWGQGTLVTVSSGGGGSGGGGSGGGGSGGGGSGGGGSGGGGSEVQLVESGGGLVQPGRSLRLSCAASGFTFDDYALHWVRQAPGKDLEWVSGISWNGGSYGYADSVKGRFTISRDNAKNSLYLQMNSLRAEDTALYYCVREKGPGLTGSTADYYGLDAWGQGTMVTVSSAAAHHHHHH
B12: TPP-975: CD137D-6GS-PDA2-6GS-HSA2-His (bispecific antibody)
chain: EVQLVESGGGVVQPGGSLRLSCAASGFTFSNYGMHWVRQAPGKGLEWVAVISNDGNTKTYADSVKGRFTISRDNSKNTLYLQMNSLRAEDTAVYYCAQDETTTVTASYYFDYWGQGTLVTVSSGGGGSGGGGSGGGGSGGGGSGGGGSGGGGSEVQLVESGGGVVRPGGSLRLSCAASGFTFDDYAMSWVRQAPGKGLEWVSGITWNAGSTGYADSVKGRFTISRDNAKNSLYLQMNSLRAEDTALYYCVRDKYSYAWSYDDFDIWGQGTMVTVSSGGGGSGGGGSGGGGSGGGGSGGGGSGGGGSEVQLVESGGGLVKPGGSLRLSCAASGFTFSNYNMNWVRQAPGKGLEWVSSISSAGTHIYYADSVKGRFTISRDNAKNSLYLQMNSLRAEDTAVYYCARDPHSTGWYKDFDYWGQGTLVTVSSAAAHHHHHH
B13: TPP-983: CD137A -6GS-HSA2-6GS-PDA2-His (bispecific antibody)
chain: EVQLVESGGGLVQPGGSLRLSCAASGFTLSNYWMNWVRQAPGKGLEWVANINQDGSERYYVDSVKGRFTISRDNAKNSLYLQMNSLRAEDTAVYYCARGGEGYGVDHYGLDVSGQGTTVTVSSGGGGSGGGGSGGGGSGGGGSGGGGSGGGGSEVQLVESGGGLVKPGGSLRLSCAASGFTFSNYNMNWVRQAPGKGLEWVSSISSAGTHIYYADSVKGRFTISRDNAKNSLYLQMNSLRAEDTAVYYCARDPHSTGWYKDFDYWGQGTLVTVSSGGGGSGGGGSGGGGSGGGGSGGGGSGGGGSEVQLVESGGGVVRPGGSLRLSCAASGFTFDDYAMSWVRQAPGKGLEWVSGITWNAGSTGYADSVKGRFTISRDNAKNSLYLQMNSLRAEDTALYYCVRDKYSYAWSYDDFDIWGQGTMVTVSSAAAHHHHHH
B14: TPP-1027: CD137A -6GS-HSA2-6GS-PD138G7(G109D)-His (bispecific antibody)
chain: EVQLVESGGGLVQPGGSLRLSCAASGFTLSNYWMNWVRQAPGKGLEWVANINQDGSERYYVDSVKGRFTISRDNAKNSLYLQMNSLRAEDTAVYYCARGGEGYGVDHYGLDVSGQGTTVTVSSGGGGSGGGGSGGGGSGGGGSGGGGSGGGGSEVQLVESGGGLVKPGGSLRLSCAASGFTFSNYNMNWVRQAPGKGLEWVSSISSAGTHIYYADSVKGRFTISRDNAKNSLYLQMNSLRAEDTAVYYCARDPHSTGWYKDFDYWGQGTLVTVSSGGGGSGGGGSGGGGSGGGGSGGGGSGGGGSEVQLVESGGGVVRPGGSLRLSCAASGFTFDDYAMSWVRQAPGKGLEWVSGITWNGGSTGYADSVKDRFTISRDNAKNSLYLQMNSLRAEDTALYYCVRDKYSYAWSYDDFDIWGQGTMVTVSSAAAHHHHHH

The chains behind the UniProt entries cited, without tags or fusion partners. Where a name states a change or a piece, a line headed by the entry shows the natural chain unless it says otherwise.
UniProt Q07011: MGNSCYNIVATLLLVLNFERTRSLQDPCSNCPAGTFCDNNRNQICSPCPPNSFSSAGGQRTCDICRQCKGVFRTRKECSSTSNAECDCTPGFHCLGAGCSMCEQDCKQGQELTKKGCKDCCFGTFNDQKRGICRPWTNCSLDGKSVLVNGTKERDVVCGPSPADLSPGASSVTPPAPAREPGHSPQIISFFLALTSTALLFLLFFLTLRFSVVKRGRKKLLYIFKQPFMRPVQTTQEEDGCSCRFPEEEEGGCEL

Biological target: human CD137 expressed on cells (human) (UniProt Q07011)
Test: FMAT (Mirrorball), His-tagged sample on CHO human CD137 cells

binding, binds:
B1
B2
B3
B4
B5
B6
B7
B8
B9
B10
B11
B12
B13
B14
